In publication PMC10163288:
Some of the results follow.

B1: il10ra_site1_sap_35_mot_HHH_b1_01513_af2_000000021_0001_1_16_H_._HHH_b2_03408_af2_0001_0000300008_0000001_0_0001 (protein)
chain: SSSSSDEEYEEEVERLLEEAEKIEDPREVAELLLKAVHLAWRAQDPELLRLVWRVVKELASSSSS
B2: il10ra_site1_sap_23_mot_HHH_b2_06857_af2_000000179_0001_42_54_H_._HHH_b1_05051_af2_0001_0000600017_0000002_0_0001 (protein)
chain: SSSSNEDNEEVMELLREVTELDQEGNPEEARKVLEEAKELAEEIGNEVLRWAIEYLEKLLSSSSS
B3: il10ra_site1_sap_21_mot_HHH_b1_07256_000000044_0001_1_17_H_._HHH_b1_03517_0001_0000300021_0000001_0_0001_af2pred_0001 (protein)
chain: SSSSDELERIFRLIRRVAELHHDGNPEEAQELLEEAKELAEEAGNEVFKFIVEFLERLLESSSSS
B4: il10ra_site1_sap_19_mot_HHH_b2_05984_000000071_0001_38_52_H_._919c246ba0fc10ef4578bdc7f1052ff8_0001_0001_0000100004_0000001_0_0001 (protein)
chain: NELEEELEELVERGDEEKVAELAVKVAKEKGSFSPEQLEALRRFIEALFRDNKKVAEHLARLVID
B5: il10ra_site1_sap_26_mot_HHH_b1_05329_000000008_0001_43_56_H_._HHH_b1_07099_af2_0001_0000500019_0000001_0_0001 (protein)
chain: SSSSDNREVYELSREVMELLRNGDPEEAEKLVEEALELAREIGNWALIKALEHVLKDIEDSSSSS
B6: il10ra_site1_normal_mot_8756ee2cf497b5429c717dfc0c0bcfd6_0001_000000186_0001_1_13_H_._HHH_b1_01841_0001_0000600019_0000002_0_af2pred_0001 (protein)
chain: SSSSSEEVERLVEIAKKLAEASDRKNDERLREELQELLEEVEEAGNAVLLVIVEFLLKHTSSSSS
B7: il10ra_site1_sap_31_mot_HHH_b1_02809_af2_000000277_0001_40_57_H_._HHH_b1_05617_af2_0001_0000300017_0000002_0_0001 (protein)
chain: SSSSDEELLELTRLIFRLMLRGDIEEARRVLEEAEELAEELGNERVLKMLKDLRESLEKRSSSSS
B8: il10ra_site1_normal_mot_HHH_b1_02997_000000220_0001_39_52_H_._HHH_b1_07797_0001_0000200027_0000001_0_af2pred_0001 (protein)
chain: SSSSSEEHRELLRLSRRALELYREGDREEARELLEEAIELAQEAGNPVFLVVLEFLLEQINSSSS
B9: il10ra_site1_normal_mot_HHH_b2_00076_000000055_0001_40_55_H_._HHH_b2_07214_af2_0001_0000700018_0000001_0 (protein)
chain: SSSSNDVSRLTAEIVRLAIRANDPEVLQEAYELFKKYIEEGDERYEEELEELLEELRKKLESSSS
B10: il10ra_site1_normal_mot_HHH_b2_00943_af2_000000149_0001_1_17_H_._HHH_b2_05085_0001_0000400026_0000001_0_af2pred_0001 (protein)
chain: SSSSSAEELIRLALEAVKLLGDEEAAKEIEELLEEAEKKGDSRLAHQVAQIAYEVVKESKSSSSS

Each binder was assayed against il10ra, Q13651 (assay: yeast display titration).

Apparent Kd, inactive:
B1 no binding seen, B2 no binding seen, B3 > 2020 nM, B4 no binding seen, B5 no binding seen, B6 no binding seen, B7 no binding seen, B8 no binding seen, B9 no binding seen, B10 no binding seen
